These are yes or no findings as the source states them, for the method shown. Tags and fused reporters may be left off the sequences shown. Blank lines part the entries; values can stand above or below the binder they belong to.
Experiments:
[1] = target: T1, E. coli IspG fused downstream of T18 (pUT18C-ispGEC) (E. coli) (UniProt P62620); test: two-hybrid; bacterial adenylate cyclase two-hybrid (BACTH) in E. coli BTH101; T25 fusions on pKT25, T18 fusions on pUT18C; colonies on X-gal, IPTG (500 μM) plates under aerobic and anaerobic conditions
T1 sequence: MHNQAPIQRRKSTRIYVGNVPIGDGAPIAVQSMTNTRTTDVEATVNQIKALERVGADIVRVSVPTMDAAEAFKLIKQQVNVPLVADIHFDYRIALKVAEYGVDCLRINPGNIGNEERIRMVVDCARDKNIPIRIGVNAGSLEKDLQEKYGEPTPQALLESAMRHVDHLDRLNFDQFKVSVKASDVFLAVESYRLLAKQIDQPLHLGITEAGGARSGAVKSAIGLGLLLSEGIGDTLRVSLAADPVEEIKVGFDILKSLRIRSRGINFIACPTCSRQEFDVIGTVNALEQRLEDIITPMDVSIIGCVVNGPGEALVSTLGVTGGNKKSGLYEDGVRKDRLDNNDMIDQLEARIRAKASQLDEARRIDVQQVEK

[2] = target: T2, Z. mobilis Strep-tag II IspG (Z. mobilis) (UniProt Q5NR50); test: native gel or EMSA; 4%-16% Bis-Tris Native gel; 50 μM IspG, 50 μM IspH and a mixture of 25 μM each; both purified
T2 sequence: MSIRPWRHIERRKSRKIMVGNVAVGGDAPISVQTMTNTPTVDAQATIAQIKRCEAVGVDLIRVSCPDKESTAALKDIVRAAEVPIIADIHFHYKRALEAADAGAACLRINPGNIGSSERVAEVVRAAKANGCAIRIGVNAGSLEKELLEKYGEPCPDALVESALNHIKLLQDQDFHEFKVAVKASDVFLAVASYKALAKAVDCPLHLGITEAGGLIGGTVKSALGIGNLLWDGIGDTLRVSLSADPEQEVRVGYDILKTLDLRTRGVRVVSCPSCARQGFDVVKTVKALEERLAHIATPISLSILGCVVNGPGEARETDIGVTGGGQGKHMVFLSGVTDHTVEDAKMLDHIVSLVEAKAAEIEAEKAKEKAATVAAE

[3] = target: Z. mobilis Strep-tag II IspH (Z. mobilis) (UniProt Q5NP61); test: as above
[4] = target: T2, Z. mobilis Strep-tag II IspG (Z. mobilis); test: SEC; Superdex 200 Increase 10/300 GL, 50 mM Tris-HCl (pH 7.5), 150 mM NaCl, anaerobic; equimolar mixture (25 μM each) compared with each protein alone (50 μM); A280; both purified
[5] = target: T3, Z. mobilis IspG fused downstream of T18 (pUT18C-ispGZM) (Z. mobilis) (UniProt Q5NR50); test: two-hybrid; bacterial adenylate cyclase two-hybrid (BACTH) in E. coli BTH101; T25 fusions on pKT25, T18 fusions on pUT18C; colonies on X-gal, IPTG (500 μM) plates under aerobic and anaerobic conditions
T3 sequence: T2 sequence

binding [1]: no binding
B1: E. coli IspH fused downstream of T25 (pKT25-ispHEC) (enzyme, UniProt P62623 1-316)
chain: MQILLANPRGFCAGVDRAISIVENALAIYGAPIYVRHEVVHNRYVVDSLRERGAIFIEQISEVPDGAILIFSAHGVSQAVRNEAKSRDLTVFDATCPLVTKVHMEVARASRRGEESILIGHAGHPEVEGTMGQYSNPEGGMYLVESPDDVWKLTVKNEEKLSFMTQTTLSVDDTSDVIDALRKRFPKIVGPRKDDICYATTNRQEAVRALAEQAEVVLVVGSKNSSNSNRLAELAQRMGKRAFLIDDAKDIQEEWVKEVKCVGVTAGASAPDILVQNVVARLQQLGGGEAIPLEGREENIVFEVPKELRVDIREVD

binding [2]: no binding (tested: 25 μM each)
binding [3]: no binding
binding [4]: no binding (tested: 25 μM each)
B2: Z. mobilis Strep-tag II IspH (enzyme, UniProt Q5NP61 1-340)
chain: MIKIILAQPRGFCAGVIRAIEIVDQALDRVGAPVYVRHEIVHNRHVVDTLKAKGAVFVEELSEVPPGEVTVFSAHGVARTVQKEAEERGLPVVDATCPLVNKVHAQGRRYLSHGRTLILIGHAGHPEIEGTLGQIDGPVHLVGSAEQVDSLDIPSDTPVAFITQTTLSVDDTRSVIAALRKKFTDVIGPDTSDICYATQNRQAAVRDLCKQSDLILVVGSPNSSNSNRLREIGLEEGLPSYLIADGSEIDPVWFEGINTVGLTAGASAPEELVQSVITAIRALGPVTVEQLDGVEEKIAFRLPPTLRHLKARNAAHNNLDNKTAASEEADSLSNDTEQEA

binding [5]: no binding
B3: Z. mobilis IspH fused downstream of T25 (pKT25-ispHZM) (enzyme, UniProt Q5NP61 1-340)
chain: B2 chain

From article PMC11218510, “Functional analysis of the methylerythritol phosphate pathway terminal enzymes IspG and IspH from Zymomonas mobilis” (Microbiology Spectrum, 2024)
